Results from PMC11461821, “Structure of a Rhs effector clade domain provides mechanistic insights into type VI secretion system toxin delivery” (Nature Communications, 2024).
Results are given in words; binding and its absence hold for the method and conditions named. Some results given as binding are weak or reduced against the parent protein; the word gives no strength.

Target: Tse15NN Rhs domain with uncleaved toxin domain (residues 335-1590, D1369N, D1391N) (Acinetobacter baumannii (strain AB307-0294))
Assay: cryo-EM structure; single particle cryo-EM of purified protein, 3 mg/mL, UltrAuFoil grids; Tse15 at 200 kV (Talos Arctica), Tse15NN at 300 kV (Titan Krios); both purified

B1: Tse15 N-terminal clade domain (residues 1-334) (domain or fragment)
chain: MAKENTQQKEIKRQPAVELAVFNLNSVTDVADLQMIASQVQLYLQVCGNTTLEQIKSKANITTVANIFALTGSVLDLMLYATDKKTGDAAVQRGALLAANLIGLFSEPNNEAHARMALRPMFGLMAECLYRENGKIKETDIKRLGLHLNAMIAGDLENFLKETQAKLSSLLISATTLGVTILQSMATPATGINAGITTAAGASAEKRDPKLKFTNWAVPLIDLLGKPSQANLTPKIQPNITSRLQQEATQAIAALSQTLQQQANAGQKYTLAWLLQETLKAIQALENKGNASVPINQTGEYERHTKGDTLEFVSLQADALNAPPCEGADSQSGK
notes: Tse15, A. baumannii AB307-0294, N-terminal clade domain, residues 1-334; Residues 14-333 are modelled in the structure; also called N-terminal clade-specific domain; not shown: StrepTag-II, N-terminal, kept
**Q.** For B1, which binding is on record?
**A.** binds
